Data source: PubChem BioAssay AID1259405 (NCATS, 2018)

Screen: 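Silenced genes that increase secreted GFP made by CHO cells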 (primary screen)
System: Chinese hamster CHO-K1 ovary cells with stable secreted eGFP expression
Reagents: single siRNA against mouse genes, 0.8 pmol siRNA per well (2 µl of 400 nM stock)
Timing: 3 days
Detection: 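Percent of the per-plate non-targeting control median for intracellular GFP per well by laser scanning cytometry and for cell viability by ATP luminescence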
Scale: GFP, % of control: higher = more GFP per well, higher productivity; viability (ATP), % of control: higher = more viable cells (more ATP)
Hit rule: 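a knock-down is called active if GFP reaches 120% or more of non-targeting control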
The deposit covers about 50,000 reagents; shown is a part drawn at random. About 4,000 of them (8%) count as active. 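Mouse siRNA library applied to hamster cells; one well for each siRNA.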

Target gene,PubChem SID,"GFP, % of control","viability (ATP), % of control",call
Plxnb3 (plexin B3),SID363570981,81.4,71.3,inactive
Arfgap1 (ARF GTPase activating protein 1),SID363570523,108,70.4,inactive
Arfgap1 (ARF GTPase activating protein 1),SID363579323,103,136,inactive
Arfgap1 (ARF GTPase activating protein 1),SID363583195,123,107,active
Taok3 (TAO kinase 3),SID363570925,93.7,92.1,inactive
"Rab12 (RAB12, member RAS oncogene family)",SID363554825,85.7,77.2,inactive
"Rab12 (RAB12, member RAS oncogene family)",SID363568272,11.9,24.5,inactive
"Rab12 (RAB12, member RAS oncogene family)",SID363586331,68.9,75.4,inactive
Kif1c (kinesin family member 1C),SID363572205,45.4,36.7,inactive
Kif1c (kinesin family member 1C),SID363573965,86.7,117,inactive
Gucy2c (guanylate cyclase 2c),SID363572882,56.5,84.3,inactive
Gucy2c (guanylate cyclase 2c),SID363577458,91,90.5,inactive
Gucy2c (guanylate cyclase 2c),SID363580978,94.2,72.3,inactive
Brat1 (BRCA1-associated ATM activator 1),SID363542929,63.6,70.3,inactive
Brat1 (BRCA1-associated ATM activator 1),SID363546446,55.5,50.2,inactive
Brat1 (BRCA1-associated ATM activator 1),SID363548202,113,103,inactive
Ctsj (cathepsin J),SID363547312,42.7,47.6,inactive
Ctsj (cathepsin J),SID363558081,51.8,64.7,inactive
Ctsj (cathepsin J),SID363559839,65.1,82.5,inactive
6030498E09Rik (RIKEN cDNA 6030498E09 gene),SID363552429,90.1,54.3,inactive
6030498E09Rik (RIKEN cDNA 6030498E09 gene),SID363585565,87.5,91.5,inactive
6030498E09Rik (RIKEN cDNA 6030498E09 gene),SID363585916,121,123,active
Pcbp3 (poly(rC) binding protein 3),SID363584442,94.2,84.3,inactive
Pcbp3 (poly(rC) binding protein 3),SID363589472,120,113,active
"Got2 (glutamatic-oxaloacetic transaminase 2, mitochondrial)",SID363570426,51.5,70,inactive
"Got2 (glutamatic-oxaloacetic transaminase 2, mitochondrial)",SID363579226,51.2,75.6,inactive
"Got2 (glutamatic-oxaloacetic transaminase 2, mitochondrial)",SID363583098,95.3,86.8,inactive
"Kcnk5 (potassium channel, subfamily K, member 5)",SID363574927,103,108,inactive
"Kcnk5 (potassium channel, subfamily K, member 5)",SID363575983,64.8,52.6,inactive
"Kcnk5 (potassium channel, subfamily K, member 5)",SID363580559,148,110,active
Snx15 (sorting nexin 15),SID363554853,144,79.9,active
Snx15 (sorting nexin 15),SID363568300,75.4,60,inactive
Snx15 (sorting nexin 15),SID363586359,45.2,48.9,inactive
Or5b124 (olfactory receptor family 5 subfamily B member 124),SID363544658,94.4,63.9,inactive
Or5b124 (olfactory receptor family 5 subfamily B member 124),SID363550986,93.1,89.3,inactive
Or5b124 (olfactory receptor family 5 subfamily B member 124),SID363557535,111,127,inactive
Or5k1 (olfactory receptor family 5 subfamily K member 1),SID363554328,71,84.6,inactive
Or5k1 (olfactory receptor family 5 subfamily K member 1),SID363567775,84.9,80.1,inactive
Or5k1 (olfactory receptor family 5 subfamily K member 1),SID363585132,71.4,113,inactive
Ier3ip1 (immediate early response 3 interacting protein 1),SID363540668,55.6,63.7,inactive
Ier3ip1 (immediate early response 3 interacting protein 1),SID363543119,96.5,74.3,inactive
Ier3ip1 (immediate early response 3 interacting protein 1),SID363552612,71.2,59.9,inactive
"Nsmce1 (NSE1 homolog, SMC5-SMC6 complex component)",SID363543843,92.7,76.5,inactive
"Nsmce1 (NSE1 homolog, SMC5-SMC6 complex component)",SID363551579,131,86.1,active
"Nsmce1 (NSE1 homolog, SMC5-SMC6 complex component)",SID363559184,80.8,69.8,inactive
Ces1e (carboxylesterase 1E),SID363545482,76.1,39.2,inactive
Ces1e (carboxylesterase 1E),SID363548995,70.4,78.4,inactive
Ces1e (carboxylesterase 1E),SID363562801,54.6,60.1,inactive
Sox9 (SRY (sex determining region Y)-box 9),SID363573815,105,79.7,inactive
Sox9 (SRY (sex determining region Y)-box 9),SID363581559,82.2,88.6,inactive
Sox9 (SRY (sex determining region Y)-box 9),SID363584023,71.7,91.6,inactive
Recql4 (RecQ protein-like 4),SID363569649,121,119,active
Recql4 (RecQ protein-like 4),SID363577393,115,78.3,inactive
Recql4 (RecQ protein-like 4),SID363578801,41.9,35,inactive
Ttc41 (tetratricopeptide repeat domain 41),SID363546729,49.3,82.9,inactive
Ttc41 (tetratricopeptide repeat domain 41),SID363548485,73,120,inactive
Ttc41 (tetratricopeptide repeat domain 41),SID363560663,90.3,69.7,inactive
